Data as given in PubChem BioAssay AID1259254 (NCATS, 2017).

Test: 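Genome-wide screen for genes that prevent DNA re-replication in cancer cells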 (primary screen)
Cells: human HCT116 colorectal cancer cells
Reagent: single siRNA against human genes
Duration: 3 days
Measured: 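Imaged Hoechst DNA stain sorts each cell into a cycle phase by DNA amount; per plate, G2 fraction set to 0% for non-targeting and 100% for GMNN siRNA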
Reading the numbers: G2 robust z-score and G2 cells, % of GMNN control: higher = more G2 cells, more excess DNA replication
Active means: 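An siRNA counts as active if its G2 robust z-score lies at least 5 MADs above the screen median; here such calls match roughly 38% of GMNN control or more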
Here is an unselected part of about 59,000 deposited reagents. Over the whole deposit, about 1,550 (2.6%) are marked active. 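G2 share is only a proxy for re-replication; each gene was hit by three separate siRNAs, and active genes were retested.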 Further read-outs or replicates are left out here. The record does not give: the amount of reagent.

Gene	PubChem SID	G2 robust z-score	G2 cells, % of GMNN control	call
IFT27	SID160729760	0.27	4.87	inactive
IFT27	SID160729761	0.915	9.41	inactive
IFT27	SID160729762	0.987	9.91	inactive
MORN2	SID160773330	1.24	11.7	inactive
MORN2	SID160773331	4.11	31.9	inactive
MORN2	SID160773332	0.419	5.91	inactive
FICD	SID160730059	0.069	3.45	inactive
FICD	SID160730060	0.403	5.81	inactive
FICD	SID160730064	0.126	3.85	inactive
PNMA6B	SID160734370	0.825	8.77	inactive
PNMA6B	SID160734371	0.233	4.61	inactive
PNMA6B	SID160771865	-1.07	-4.54	inactive
C9orf43	SID160762531	-0.106	2.22	inactive
C9orf43	SID160762532	2.97	23.9	inactive
C9orf43	SID160762533	-0.222	1.41	inactive
RNF185	SID160753983	-0.287	0.948	inactive
RNF185	SID160753984	-0.141	1.97	inactive
RNF185	SID160753985	-0.72	-2.1	inactive
PIP4K2C	SID160749563	-0.686	-1.86	inactive
PIP4K2C	SID160749564	-0.374	0.335	inactive
PIP4K2C	SID160749565	-0.419	0.0196	inactive
GALNT2	SID160769084	-0.0165	2.85	inactive
GALNT2	SID160769094	2.38	19.7	inactive
GALNT2	SID160769104	-0.0636	2.52	inactive

7 entries from above, set out differently.
{"Gene": "IFT27", "PubChem SID": "SID160729760", "G2 robust z-score": 0.27, "G2 cells, % of GMNN control": 4.87, "call": "inactive"}
{"Gene": "IFT27", "PubChem SID": "SID160729761", "G2 robust z-score": 0.915, "G2 cells, % of GMNN control": 9.41, "call": "inactive"}
{"Gene": "IFT27", "PubChem SID": "SID160729762", "G2 robust z-score": 0.987, "G2 cells, % of GMNN control": 9.91, "call": "inactive"}
{"Gene": "MORN2", "PubChem SID": "SID160773330", "G2 robust z-score": 1.24, "G2 cells, % of GMNN control": 11.7, "call": "inactive"}
{"Gene": "MORN2", "PubChem SID": "SID160773331", "G2 robust z-score": 4.11, "G2 cells, % of GMNN control": 31.9, "call": "inactive"}
{"Gene": "MORN2", "PubChem SID": "SID160773332", "G2 robust z-score": 0.419, "G2 cells, % of GMNN control": 5.91, "call": "inactive"}
{"Gene": "FICD", "PubChem SID": "SID160730059", "G2 robust z-score": 0.069, "G2 cells, % of GMNN control": 3.45, "call": "inactive"}

Continued.
Gene	PubChem SID	G2 robust z-score	G2 cells, % of GMNN control	call
MPI	SID160777419	-1.18	-5.33	inactive
MPI	SID160777420	2.32	19.3	inactive
MPI	SID160777421	-0.615	-1.36	inactive
CCDC43	SID160732401	-0.621	-1.4	inactive
CCDC43	SID160756244	-0.217	1.44	inactive
CCDC43	SID160756245	-0.0977	2.28	inactive
NUP214	SID160719556	0.235	4.62	inactive
NUP214	SID160719557	-0.122	2.11	inactive
NUP214	SID160731943	4.35	33.6	inactive
ID2	SID160775519	-0.428	-0.0439	inactive
ID2	SID160775520	1.93	16.6	inactive
ID2	SID160775521	1.56	14	inactive
OLIG3	SID160760275	-0.485	-0.444	inactive
OLIG3	SID160760276	-0.689	-1.88	inactive
OLIG3	SID160760277	-0.198	1.58	inactive
OSBPL6	SID160755066	-0.631	-1.47	inactive
OSBPL6	SID160755067	0.425	5.95	inactive
OSBPL6	SID160755068	0.000115	2.97	inactive
IRX2	SID160759349	3.28	26	inactive
IRX2	SID160759352	1.14	11	inactive
IRX2	SID160759353	-0.995	-4.03	inactive
KCNMB4	SID160730979	4.38	33.8	inactive
KCNMB4	SID160738773	3.21	25.5	inactive
KCNMB4	SID160738774	0.676	7.72	inactive
CCDC9	SID160737612	2.1	17.7	inactive
CCDC9	SID160737613	-0.0322	2.74	inactive
CCDC9	SID160737614	-0.667	-1.72	inactive
CNN2	SID160745422	3.37	26.7	inactive
CNN2	SID160745432	5.27	40.1	active
CNN2	SID160745442	0.339	5.35	inactive
KLC2	SID160748036	-0.731	-2.17	inactive
KLC2	SID160748037	0.662	7.63	inactive
KLC2	SID160748038	-0.655	-1.64	inactive
KCNS3	SID160776255	-1.32	-6.29	inactive
KCNS3	SID160776257	0.848	8.94	inactive
KCNS3	SID160776258	-1.05	-4.44	inactive
MTMR2	SID160721095	-0.0685	2.49	inactive
MTMR2	SID160721096	0.641	7.48	inactive
MTMR2	SID160721097	-0.791	-2.6	inactive
OCSTAMP	SID160732447	2.18	18.3	inactive
OCSTAMP	SID160756773	-0.125	2.09	inactive
OCSTAMP	SID160756774	-0.188	1.65	inactive
PHF19	SID160737695	-0.75	-2.31	inactive
PHF19	SID160737696	-0.976	-3.9	inactive
PHF19	SID160737697	1.76	15.3	inactive
